Test results as given in patent US20080025931A1, “Cosmetic method for limiting age-related hollowing of the face” (priority 2006, published 2008).

Test system: human adipocytes obtained from the abdominal region
Test: Stimulation of lipogenesis by measuring the incorporation of 14C-acetate into the lipids
Assay type: cell-based
Settings: interference with scintillation assay
Procedure: The activity of a Vitreoscilla filiformis cell extract as prepared according to Example 1 on a local adipose development was evaluated. The study was carried out on human adipocytes obtained from the abdominal region. Various parameters representing the adipocyte physiology were analysed: • a) stimulation of lipogenesis by measurement of the incorporation of ^14C-acetate into lipids; • b) stimulation of adipocyte differentiation by measuring the expression of adipocyte differentiation markers: LPL (lipoprotein lipase, involved in the storage of fat; • c) monitoring of the enrichment in lipids by specific staining (AdipoRed™) and imaging; • d) monitoring of the cell size/size distribution by flow cytometry and fluorescent labelling (AdipoRed™). Stimulation of Lipogenesis by Measuring the Incorporation of ^14C-acetate into the Lipids The adipocytes were isolated after an abdominal plastic surgery operation and then incubated in the presence of collagenase and then washed and taken up in test medium. […] After 4 h of treatment, the lipids were extracted with methanol/chloroform/water and the incorporated radioactivity was counted by liquid scintillation.

| SMILES | % quenching (20 μM) | % quenching (1 μM) |
| --- | --- | --- |
| C/C=C/C/C=C/CCC(=O)[C@H]1O[C@H]1C(N)=O [Cerulenin] | 0% |  |
| CC(C)NCC(O)c1ccc(O)c(O)c1 (centres unmarked) [Isoproterenol] |  | 0% |
